This passage reports z-score results from PubChem BioAssay AID1347423 (Functional Genomics Laboratory (NCATS/FGL), 2020).

The campaign covered roughly 52,000 sequences. About 210 (0.4%) were called active.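 Rule for the calls: active = gene whose silencing raises cell survival under the drug, median off-target-corrected z-score across its silencing RNAs 2 or more; inactive = the rest.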 This is one part of the list.

The test is described as follows: Resistance to Poly (ADP-Ribose) Polymerase inhibitor: Gene Identification via Genome-wide siRNA Screen. The note with it: mouse BRCA2 R2336H ES cells, olaparib, CellTiter-Glo viability; hits give high values. The method, boiled down: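 Genome-wide siRNA screen (3 siRNAs/gene, 20 nM) in mouse ES cells carrying hypomorphic BRCA2 R2336H; olaparib 500 nM added 48 h post-transfection, CellTiter-Glo viability 72 h later. Normalized to plate-median negative control; MAD z-scores, gene median, seed-adjusted.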
(In general: Cellular ATP, detected with luciferase, serves as a proxy for viable cell number.)
As to AACUUUCCUGCUCUAACACTT against Olfr930, the z-score is inactive: -1.61. GGCACCAUUGAAAUUCUGATT against Arbp: the z-score was inactive: -1.91.

Regarding GCCCAUGGACACAUCCAGUTT against Slc24a6, the z-score was inactive: -2.19. As for GGCAGAUCAACCUCAGCAATT against AL033314, the figure is inactive: 0.531.

Consider GGGUACUGCUUCAACCAACTT against P2rx3, for which the z-score is inactive: -0.0863. As for GGAGAGGGAUCAUAGAAAATT against Hey2, the figure is inactive: 1.59; as for GGAAUGUGGUUUCCUGUUATT against Fscn3, inactive: -0.609. Under GGACUUCGUGUUCAUACAUTT against Tmie stands inactive: -1.08. As for CCUUCGUAGCCUGUAUCAUTT against Myadm, the figure is inactive: -0.25; as for GCUCAUGUCCUAUAUUCAATT against Scfd2, inactive: 0.514. Turning to GGAAGUCGCCUACAUCCUUTT against Lenep, the z-score was inactive: 0.573. Under “CGUGGGUACAAUCAGAUAATT against C130032J12Rik” stands inactive: -0.485. As for GGAAAUUUACUAGGAGAACTT against Carf, the figure is inactive: 0.0892; as for GGCUGUUGUAUUCAGACCATT against Cmkor1, inactive: 0.817; as for “GCAGAGCAAAGACCUGACUTT against 4930562D19Rik”, inactive: 0.883. As for GCACAGAUUCCAUUAAAGATT against Rhbdl4, the figure is inactive: 1.19.

On to GGAUUCGGAAUACUACGAUTT against Abo, for which the z-score is inactive: 1.79. GGCAAAUGAGAAACAGCAATT against Cxcl16: the z-score was inactive: 0.749. Turning to GGCUGAGACGGAAUCUUUATT against Bfsp2, the z-score was inactive: 0.136. Under GCCAAUACACGUCUACUGATT against Gm1553 stands inactive: 0.00258; under GAUUGGCUUCAAUCUAGUCTT against Olfr713, inactive: 0.0826. GGAAUACCAUGUUACAAUUTT against Reln: the z-score was inactive: -0.0678.

CCACCCUCUUCAUAACAGUTT against Crsp8: the z-score is inactive: -0.339.

Turning to GGAGAUCCUAAUCAUGUCATT against Kcmf1, the z-score is inactive: 0.276. As for GGCCAAGGUACAAUCCACCTT against Gm996, the figure is inactive: 0.411; as for GCUGGCUGUUUCACUACAGTT against Tdh, inactive: 0.0389; as for GGCUGGUGACCUACAUCUUTT against Rhbdl7, inactive: 0.128. As for “CCUCACCUUAAGUGUGUCATT against 1110058L19Rik”, the figure is inactive: -1.7; as for GGGCAGAGUGAUGUUGUCATT against Gsdmdc1, inactive: -1.93. Under GGGAGACCUGCUACUAUUGTT against Gtf3c2 stands inactive: -0.0505; under GCAAAUUCACCGGAAAAUGTT against Sh3d4, inactive: -1.44. Consider GCAUAUACUCCAAAAGUCATT against Cldn8, for which the z-score is inactive: 1.36. As for UGGCCUGAUCAUGAACAGUTT against S100a15, the figure is inactive: 1.62. Under “GGUACACCCAGACAAGAACTT against 4930503B20Rik” stands inactive: 3.48. Turning to GGAAGGUUUGUUGUUUUGUTT against D10Ucla2, the z-score was inactive: 0.932. With GCAACAAGUUUGAUACCGATT against Chic1, the z-score is inactive: -0.784. Under GGAUAACAAAAGUAUCCAGTT against Ikbke stands inactive: 0.845; under GGAGAACAUCACUGAUCCATT against Grin1, inactive: 1.1; under “GGAGGAGGUUCAUAUUAAATT against A330041J22Rik”, inactive: 0.981.

As to UCACAACUGUCUGUUCUCATT against Ngfg, the z-score is inactive: -0.819. As for GGCAUCCCACUGAAGAACATT against Cmas, the figure is inactive: 0.295.

Turning to GGACUUUGUGCAUUUGUUATT against Ly75, the z-score is inactive: -1.15. Under “CCAAAAGUGGAGAGCGACATT against 1500041B16Rik” stands inactive: -2.14; under GGACUAUAAAAUGUCAUGGTT against Etsrp71, inactive: 0.232. Under GGGAAACCAUCGAUUUGAATT against Bmp5 stands inactive: -1.46.

For CGUAGGAGAACAAACAUCCTT against Tmc7, the z-score was inactive: 1.3.

As to “CCCUUAGACAAACAUGCUATT against A630035I11Rik”, the z-score was inactive: 0.871.

For the sequence GCAUACUACAUGAUGUGGUTT against Spag7, the z-score was inactive: 0.551. Under GGGUUUUGCUAUGUGGCCUTT against Farsla stands inactive: 1.29; under GCAACUCAAUCCAUGCAAATT against Senp8, inactive: 0.472; under “GCAAGAAAGCAUGGUAUAATT against B230315F11Rik”, inactive: -1.56. Regarding GGUUAUGCUGGAGAUAAAUTT against Lama1, the z-score was inactive: -0.386. As for “GGCUGAGUGCUUCUAUCGUTT against A830008O07”, the figure is inactive: -0.405; as for GGCUGUGAUUAGAGGAUGATT against Dnajc5, inactive: 0.235; as for “GGGUUUUUCUGAAAAACAUTT against B230106I24Rik”, inactive: 1.83.

Regarding GCAUUCUGUUCGAGCUCCATT against BC037095, the z-score is inactive: -3.19. As for CCUCAACUUUUCAAAAGACTT against Dlx5, the figure is inactive: -0.454. As for GGUCAUAGCCCUCUACAUATT against Rgr, the figure is inactive: -0.982. For GGAGUUGUCGCACUACAUGTT against Bicd2, the z-score was inactive: -1.28.

Consider “GGAGUCAAAAAAAAUGCAATT against 2610028I09Rik”, for which the z-score was inactive: 0.582.

For GGAUCUGGAGAAGAUGUUCTT against Efhd1, the z-score is inactive: -0.354. As for GGCGUGUUGGAACAAGGAUTT against Cops8, the z-score was inactive: -0.907. Under GGAAGUUUUCAGGCAAUUUTT against AA959601 stands inactive: -2.38; under CCGUGUACUUUGGAUCUGGTT against Cox7c, inactive: -0.308; under CGAUGAGAUGCGUAUUGAGTT against Card11, inactive: -0.977. As for “GGUGUACGGUAUUUUGUUUTT against D330045A20Rik”, the figure is inactive: 0.0853; as for GGCACACUUUCUACCUAAUTT against Tmem26, inactive: 0.734; as for “GCGGCUAGGAUUUCUGGGATT against 2310047O13Rik”, inactive: 0.169.

For the sequence GCAUACUUUUGUCAAGUCCTT against Dbhl1, the z-score was inactive: 0.287. Consider CCCUAAUAGGUCAAUAAAGTT against V1re13, for which the z-score was inactive: 1.16. Take GGCCAACCUUGGUCUUAUGTT against Gpr146: the z-score was inactive: -0.848. As to “CCCAGUACAGCCUUGUGGUTT against 2610034E13Rik”, the z-score is inactive: 0.0537. Take GCUGUGCAGAUUAAAUUUGTT against Rsbn: the z-score was inactive: 0.00681.

With “CCUAAGGUCAAGAUAUAGCTT against 1200008O12Rik”, the z-score was inactive: 0.201. As for GGAAGUCACUCCUCUUGUUTT against Garnl1, the figure is inactive: -1.02. Consider GGAAUCAAACUGGAUUGAUTT against Pi4k2b, for which the z-score was inactive: 1.42. With GGGUGCUGUGCACUAUUUCTT against Pcnxl3, the z-score is inactive: 0.329.

For the sequence GGCACCAUCUAUUAUUUUCTT against Psmc3, the z-score was inactive: -1.33.

CCGAAGAUGUUCCUCGGAATT against Rpl6: the z-score was inactive: -3.32. As to GGAGAAUGAGAUUGAGUGUTT against Rnf144, the z-score was inactive: 0.159.

Take GCUUUAUUUUUUCCACCUUTT against Olfr106: the z-score was inactive: -0.481.

As for GGAAAAGAUCUGUUUCUCATT against Mucdhl, the z-score is inactive: 0.892. For CCAACGCGAACGAGAACUATT against C1qb, the z-score is inactive: -1.3. As for GGCUUUAACCGCAUCAUAGTT against G6pd2, the figure is inactive: -1.37; as for CCUCGGAUAACGAAGCUAATT against Hoxc10, inactive: -0.368; as for GCAAUUACCUGGUUUAAUGTT against Ptdsr, inactive: 0.961.

“GGGCCAUGCUAACCCUUAATT against 2200002K05Rik”: the z-score is inactive: -3.08.

Turning to “GGAAAGGGUCUGUUUUACUTT against 2810002I04Rik”, the z-score is inactive: 1.45. Under GGCAGCUGGAAAGACAAAATT against Snca stands inactive: 0.0268; under GGAUGCCAAUUACUUUCUATT against Chst9, inactive: 0.366. On to GCAUCACAAAUAUGCUUCUTT against Tas2r120, for which the z-score is inactive: -0.535. As for GGAAGGAGAAAAUGGAACUTT against Il12rb2, the figure is inactive: -2.49; as for GGGUUUUCUUACAAAGAACTT against Hoxb2, inactive: 0.803. Under GGCUAAAGAAUGUUAUCAGTT against Ttc12 stands inactive: -0.0715; under GGAACAUGAAGUGGAAAAATT against Vps33a, inactive: -0.369; under GGAAUAAGGAGCUGAAGAATT against Olfr63, inactive: -2.3. Under GGACUACCAAUACGAACUGTT against Il23a stands inactive: 0.547; under GGAAAGGACAAGAAAAUUUTT against Strn, inactive: 1.08. Take GGGCAUGCAUAGCUACUAUTT against Tmprss6: the z-score was inactive: -1.38. Under GGAGAUCACCUACGACAUGTT against Lgals8 stands inactive: -1.23; under “GGUCAAGUCACUGCUUGAATT against 2010005H15Rik”, inactive: -0.396; under GGAAGAAAGCAGAACAAGGTT against Armcx3, inactive: 0.35.

As for GGUUCCUAGAUAAGAUUCGTT against Itm2b, the z-score was inactive: 1.58.

Consider GCGGUGGUUAUCCUAGAAATT against Hivep2, for which the z-score is inactive: -0.0386. With “GGAGAAAGGAACUGAAAGUTT against D430026P16Rik”, the z-score was inactive: -0.591.
